{"source": "PubChem BioAssay AID504444", "about": "(National Center for Advancing Translational Sciences (NCATS), 2011)", "note": "The campaign covered roughly 360,000 compounds. About 7,500 (2.1%) were called active. Inconclusive results, whose numbers are uncertain, are shown with a selection of clear calls. Calls follow the shape of the dose curve; as a rule, active = well fitted inhibition curve with a large enough effect; inconclusive = small, poorly fitted or top-dose-only effect, or effect the other way; inactive = flat fitted curve, though single readings scatter. Potencies of inconclusive entries are doubtful fits and often do not repeat. % is scaled to controls: 0 for no effect and ±100 for the full control effect; potency is read from the fitted curve at half-maximal effect."}
{"assay": "Nrf2 qHTS screen for inhibitors; also: nearly all actives have a fitted effect of over 60% in size", "details": "A549 ARE-Fluc reporter, luciferase luminescence, 18-24 h; activity change, negative = inhibition: at 46 µM (top of the series)", "summary_of_the_method": "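Concentration-response testing used A549 ARE_Fluc cells at 5000 cells/well. Following an 18-24 h compound incubation, viability was read by fluorescence (Ex 405/Em 525) and luciferase output by luminescence.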"}
{"smiles": "CC(C)=CCN1CCN(Cc2cccc3nccnc23)CC1CCO", "note": "(configuration not stated)", "Potency": "inconclusive: 6.51 µM [activator, full curve, poor fit]"}
{"smiles": "Cc1ccc2c(c1)N(C(=O)N1CCC(C(=O)NCc3ccccc3F)CC1)CC(C)O2", "note": "(configuration not stated)", "Potency": "inconclusive: 5.17 µM [activator, partial curve, poor fit]"}
{"smiles": "CCOC(=O)c1c(CC(C)C)csc1NC(=O)COC(=O)c1cc(OC)c(OC)cc1[N+](=O)[O-]", "Potency": "inconclusive: 6.51 µM [falling, single point]"}
{"smiles": "Cc1ccc(-n2c(SCC(=O)Nc3ccc4c(c3)OCCO4)nnc2-c2ccco2)cc1", "Potency": "inconclusive: 20.6 µM [falling, single point]"}
{"smiles": "NS(=O)(=O)c1cccnc1Nc1c(Cl)cccc1Cl", "Potency": "inconclusive: 20.6 µM [falling, partial curve]"}
{"smiles": "CC(C)C(=O)Nc1cccc(COc2ccccc2CN(Cc2ccccc2)C(=O)OC(C)(C)C)c1", "Potency": "inconclusive: 23.1 µM [falling, single point]"}
{"smiles": "COC(=O)c1[nH]c2c(c1C)C(=O)CC(c1ccccc1)C2", "note": "(configuration not stated)", "Potency": "inactive"}
{"smiles": "CCCC1(c2ccccc2)NC(=O)N(CC(=O)Nc2cc(C)on2)C1=O", "note": "(configuration not stated)", "Potency": "inconclusive: 20.6 µM [activator, single point]"}
{"smiles": "COc1cccc(C(=O)NCCSc2ccc(F)cc2)c1", "Potency": "inconclusive: 5.17 µM [activator, partial curve]"}
{"smiles": "Cc1cc2oc(=O)c3c(c2cc1OCc1nn[nH]n1)CCCC3", "Potency": "inactive"}
{"smiles": "COc1ccc(NC(=O)c2cc(C3CC3)on2)c(OC)c1", "Potency": "inconclusive: 20.6 µM [activator, partial curve, poor fit]"}
{"smiles": "CC(C)(C)c1cc(NC(=O)COC(=O)c2ccc(O)cc2O)n(-c2ccccc2)n1", "Potency": "inconclusive: 16.4 µM [falling, single point]"}
{"smiles": "COc1ccc(C(=O)Nc2nc3c(s2)Cc2cc(OC)ccc2-3)cc1", "Potency": "inconclusive: 29.1 µM [falling, single point]"}
{"smiles": "COc1ccccc1CNC(=O)COC(=O)c1cc(=O)[nH]c2ccccc12", "Potency": "inactive"}
{"smiles": "COc1ccc(NC(=O)CSc2oc(-c3ccco3)nc2S(=O)(=O)c2ccccc2)c(OC)c1", "activity change, negative = inhibition": "inactive: 9.83% [at 9.27 µM]"}
{"smiles": "CCCNc1nc2c(c(=O)n(C)c(=O)n2C)n1CCCc1ccccc1", "Potency": "inconclusive: 18.4 µM [falling, partial curve, poor fit]"}
{"smiles": "Cc1ccccc1NCc1nc2ccccc2n1CCOc1ccccc1", "Potency": "inconclusive: 3.26 µM [activator, partial curve, poor fit]"}
{"smiles": "Cc1cc(=O)n2nc(-c3ccccc3)sc2n1", "Potency": "inconclusive: 1.03 µM [activator, full curve]"}
{"smiles": "NC(=O)CC(NC(=O)Cc1cccc2ccccc12)c1ccc(N2CCc3ccccc3C2)c([N+](=O)[O-])c1", "note": "(configuration not stated)", "Potency": "inconclusive: 29.1 µM [falling, single point]"}
{"smiles": "Cc1nn(-c2ccccc2)c(C)c1/C=N/n1c(-c2ccc(C(C)(C)C)cc2)n[nH]c1=S", "Potency": "inconclusive: 25.9 µM [falling, single point]"}
{"smiles": "Clc1ccc(-c2nnc(-c3ccco3)nc2N2CCCCC2)cc1", "Potency": "inactive"}
{"smiles": "O=S(=O)(NCCN1CCOCC1)c1cccc(C(F)(F)F)c1", "Potency": "inconclusive: 0.13 µM [falling, full curve, poor fit]"}
{"smiles": "CN(C)c1ccc(-c2noc(C3CCN(S(=O)(=O)c4ccc(C(=O)O)cc4)CC3)n2)cc1", "Potency": "inconclusive: 14.6 µM [falling, partial curve, poor fit]"}
{"smiles": "Oc1[nH]c2ccccc2c1N=Nc1nc2ccccc2s1", "Potency": "inconclusive: 0.411 µM [activator, full curve]"}
{"smiles": "Cc1ccc2nc(NC(=O)CN3CCOCC3)sc2c1", "Potency": "inactive"}
{"smiles": "Cc1ccc(Nc2nc(CSc3n[nH]c(N)n3)cs2)cc1", "Potency": "inconclusive: 29.1 µM [activator, single point]"}
{"smiles": "O=C(c1cnn(C(=O)c2ccccc2)c1)c1ccccc1O", "Potency": "inactive"}
{"smiles": "CC(CNC(=O)CC(C)(C)C)NC(=O)CC(C)(C)C", "note": "(configuration not stated)", "Potency": "inconclusive: 4.11 µM [activator, single point]"}
{"smiles": "O=S(=O)(c1ccc(Cl)s1)N1CCN(CCc2ccccc2)CC1", "Potency": "inconclusive: 5.8 µM [falling, full curve]"}
{"smiles": "O=C(Nc1nc(-c2ccccn2)cs1)c1ccc2c(c1)OCCO2", "Potency": "inconclusive: 0.461 µM [activator, partial curve, poor fit]"}
{"smiles": "Cc1ncc(CO)c2cc(C(N)=O)c(=Nc3ccccc3)oc12", "Potency": "inconclusive: 29.1 µM [falling, single point]"}
{"smiles": "O=C(N/N=C/c1cccc2cccnc12)c1ccccc1O", "Potency": "inactive"}
{"smiles": "COc1ccc(-c2noc(CN3CCN(c4cccc(Cl)c4)CC3)n2)cc1", "Potency": "inconclusive: 25.9 µM [falling, partial curve, poor fit]"}
{"smiles": "COC(=O)CN1C(=O)C(C)(C)Oc2ccc(C(=O)NC3CCCC3)cc21", "Potency": "inconclusive: 32.6 µM [falling, single point]"}
{"smiles": "Cc1cc(C)n(-c2ccc(C(=O)Nc3ccc(N4CCOCC4)cc3)cc2)n1", "Potency": "inconclusive: 16.4 µM [falling, partial curve]"}
{"smiles": "NCCc1ccc(O)c(O)c1", "Potency": "inactive"}
{"smiles": "COc1ccc(CC2(C)OC(c3ccc(Cl)cc3)=NN2C(C)=O)cc1", "note": "(configuration not stated)", "Potency": "inconclusive: 29.1 µM [falling, single point]"}
{"smiles": "CCc1ccc(OCC(=O)N(C)CCC#N)c(Br)c1", "Potency": "inconclusive: 6.51 µM [activator, single point]"}
{"smiles": "COC(=O)Oc1ccc(/C=N/NC(=O)CSCc2ccccc2Br)cc1OC", "Potency": "inconclusive: 18.4 µM [falling, single point]"}
{"smiles": "Cc1ccc(C(=O)CCC(=O)Nc2ccc(Cl)c(S(=O)(=O)Nc3cccc(Cl)c3)c2)cc1", "Potency": "inconclusive: 29.1 µM [falling, single point]"}
{"smiles": "Nc1c(NC=O)c(=O)n(Cc2ccccc2)c(=O)n1Cc1ccccc1", "Potency": "inactive"}
{"smiles": "CCc1ccc(Nc2ccc(S(=O)(=O)N3CCOCC3)cc2[N+](=O)[O-])cc1", "Potency": "inconclusive: 20.6 µM [falling, partial curve, poor fit]"}
